At least one structure is not confirmed: it was looked up by name or label, or the drawing left a doubt.
Key:
[1] = system: M. tuberculosis XDR strain; set-up: species or system Mycobacterium tuberculosis; details: in vivo
[2] = system: M. tuberculosis XDR strain; assay type: in vivo, Mycobacterium tuberculosis; details: latent model, 30 mg/kg
M. tuberculosis H37Rv = experiment: In vitro macrophage infection model, H37Rv, CFU analysis; assay type: cell-based, Mycobacterium tuberculosis; details: infected Raw 264.7 cells, 3 days
M. tuberculosis [3] = experiment: Lung granuloma formation and immune response analysis in both tuberculosis mouse models; assay type: in vivo, Mycobacterium tuberculosis
M. tuberculosis [4] = details: in vivo, 1 mg/kg/day

Compound: CO[C@H]1/C=C/O[C@@]2(C)Oc3c(C)c(O)c4c(O)c(c(/C=N/N5CCN(C)CC5)c(O)c4c3C2=O)NC(=O)/C(C)=C\C=C\[C@H](C)[C@H](O)[C@@H](C)[C@@H](O)[C@@H](C)[C@H](OC(C)=O)[C@@H]1C [RIF, rifampicin]
- lung species diversity (Shanon-based alpha diversity) [1]: worsened the severity
- occupancy of M. tuberculosis in the lungs (16S rRNA gene-based lung metagenomics) compared to the infected control group [1]: did not decrease
- effect on number of M. tuberculosis in the lungs [2]: no significant difference
- concentration showing significant effects against H37Rv (M. tuberculosis H37Rv): 1 μg/mL or 10 μg/mL
- granuloma formation in the lungs compared to infected control mice (M. tuberculosis [3]): no significant reduction
- burden of M. tuberculosis in the lungs (M. tuberculosis [4]): did not significantly reduce

From patent publication US20250127828A1, “BACILLUS […] AND COMPOSITION FOR PREVENTING, TREATING, OR IMPROVING TU[…] SAME” (priority 2023, published 2025)
